From publication PMC3612083, “Imaging Beads-Retained Prey Assay for Rapid and Quantitative Protein-Protein Interaction” (PLoS ONE, 2013)
These are yes or no findings as the source states them, for the method shown. Binding seen in cells or lysates may run through a third protein. Some binding calls cover weakened binding; strength is not graded here. Sequences can lack the tags named with a protein.

How the values were obtained:
[1] = target: T1, GST-GRIP wild type (GRIP domain of Golgin245 in pGEX-6P1) (UniProt Q13439); experiment: pull-down; IBRP assay: GST-bait on glutathione beads (16 µg/µl), HEK293 lysate with GFP-prey, 100 µM GDP; 30 min at 4°C, washes with 300 mM NaCl, bead fluorescence imaged; only the target purified
T1 sequence: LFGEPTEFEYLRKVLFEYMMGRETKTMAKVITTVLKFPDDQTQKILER

[2] = target: T1, GST-GRIP wild type (GRIP domain of Golgin245 in pGEX-6P1); experiment: pull-down; imaging beads-retained prey (IBRP) assay: GST-bait on glutathione beads (16 µg/µl), HEK293 lysate with GFP-prey, 100 µM GMPPNP; 30 min at 4°C, washes with 300 mM NaCl, bead fluorescence imaged; GFP lysate as control; only the target purified

B1: Arl1-GFP (wild type rat Arl1 in pEGFP-N1) (natural protein, UniProt P61212 1-181, looked up)
chain: MGGFFSSIFSSLFGTREMRILILGLDGAGKTTILYRLQVGEVVTTIPTIGFNVETVTYKNLKFQVWDLGGQTSIRPYWRCYYSNTDAVIYVVDSCDRDRIGISKSELVAMLEEEELRKAILVVFANKQDMEQAMTPSEMANALGLPALKDRKWQIFKTSATKGTGLDEAMEWLVETLKSRQ
notes: Arl1, ARF family small GTPase, rat, wild type; source: HEK293, transfected, in lysate
B1 was tested, and the binding [1] was “binds” and the binding [2] was “binds”.
